# Results are given in words; binding and its absence hold for the method and conditions named. Some results given as binding are weak or reduced against the parent protein; the word gives no strength.
# Amino acid sequences for entries named in this document (tags omitted).
# UniProt P56536: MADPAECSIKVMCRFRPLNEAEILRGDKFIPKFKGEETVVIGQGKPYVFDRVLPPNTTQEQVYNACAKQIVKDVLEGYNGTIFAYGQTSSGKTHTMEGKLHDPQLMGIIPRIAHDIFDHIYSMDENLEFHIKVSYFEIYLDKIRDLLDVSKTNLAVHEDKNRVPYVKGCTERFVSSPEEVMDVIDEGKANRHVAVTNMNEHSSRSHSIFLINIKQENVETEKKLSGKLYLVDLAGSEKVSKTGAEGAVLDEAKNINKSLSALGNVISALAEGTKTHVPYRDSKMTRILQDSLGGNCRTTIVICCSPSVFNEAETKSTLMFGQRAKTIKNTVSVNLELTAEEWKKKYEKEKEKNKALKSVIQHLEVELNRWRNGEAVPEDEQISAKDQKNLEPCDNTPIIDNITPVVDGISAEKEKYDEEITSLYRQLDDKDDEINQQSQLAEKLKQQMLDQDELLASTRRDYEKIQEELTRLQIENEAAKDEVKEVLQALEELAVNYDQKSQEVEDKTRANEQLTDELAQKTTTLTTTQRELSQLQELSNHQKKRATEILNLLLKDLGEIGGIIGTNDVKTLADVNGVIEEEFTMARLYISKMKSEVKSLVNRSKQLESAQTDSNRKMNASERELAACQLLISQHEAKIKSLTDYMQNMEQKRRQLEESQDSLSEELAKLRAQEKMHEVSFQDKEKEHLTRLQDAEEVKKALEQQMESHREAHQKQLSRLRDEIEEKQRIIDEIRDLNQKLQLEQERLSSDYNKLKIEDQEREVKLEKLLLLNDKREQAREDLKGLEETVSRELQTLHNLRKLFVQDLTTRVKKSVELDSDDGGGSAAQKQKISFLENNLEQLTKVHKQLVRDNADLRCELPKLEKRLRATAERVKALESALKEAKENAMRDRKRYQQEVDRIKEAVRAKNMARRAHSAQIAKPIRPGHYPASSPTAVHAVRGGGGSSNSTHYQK
# Target: KIF5C (wild-type kinesin heavy chain) (UniProt P56536)
# Assay: SEC; His6-KIF5C constructs and untagged KLC1 constructs co-expressed in E. coli, His-Trap, then Superose 6 10/300 in 20 mM Hepes pH 7.4, 150 mM NaCl, 1 mM MgCl2, 0.1 mM ADP, 0.5 mM TCEP; fractions on SDS-PAGE
substance,measurement,value
KIF5C (wild-type kinesin heavy chain) (from UniProt P56536 1-955),binding,binds
